Data as given in PubChem BioAssay AID686937 (Drosophila RNAi Screening Center, 2013)
In all, the deposit lists about 23,000 reagents; shown is an unselected part of those that have a named target and a result. 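Reduced-secretion tags in replicate 1 do not always agree with the z-scores; no criterion for assigning the tags was given.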 Reagent sequences are not shown. The record does not give: the amount of reagent.

Assay: 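Genes whose loss weakens secretory pathway function in fly cells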 (primary screen)
System: Drosophila S2 cells expressing secreted horseradish peroxidase
Reagent: long dsRNA against Drosophila genes
Duration: about 5.5 days (5 days dsRNA, then 12 h reporter induction)
Treatment: reporter expression induced after 5 days of dsRNA, read 12 h later; inducer not stated
Read-out: 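Chemiluminescent measurement of peroxidase in the medium 12 h after reporter induction, following 5 days of dsRNA, given as a z-score per plate; higher means more secretion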
Scale: z-score: higher = more reporter secreted into medium

Cnot4 [DRSC02830]
- z-score, replicate 1: -0.34
- z-score, replicate 2: -0.63

Cnot4 [DRSC02831]
- z-score, replicate 1: -0.34
- z-score, replicate 2: -0.56

CG7275 [DRSC10796]
- z-score, replicate 1: 0.2
- z-score, replicate 2: 0.09

Vps28 [DRSC06168]
- z-score, replicate 1: -0.66
- z-score, replicate 2: -0.68

Spn42Db [DRSC05009]
- z-score, replicate 1: 0.31
- z-score, replicate 2: 0.3

CG17572 [DRSC02629]
- z-score, replicate 1: 0.11
- z-score, replicate 2: 0.38

CG14384 [DRSC14842]
- z-score, replicate 1: 0.41
- z-score, replicate 2: 0.27

CG10621 [DRSC02078]
- z-score, replicate 1: 0.17
- z-score, replicate 2: -0.07

CG1695 [DRSC20538]
- z-score, replicate 1: 0.1
- z-score, replicate 2: 0.11

CG8641 [DRSC11028]
- z-score, replicate 1: 0.25
- z-score, replicate 2: 0.18

CG11151 [DRSC19387]
- z-score, replicate 1: 0.42
- z-score, replicate 2: 0.52

CR42745 (retired record) [DRSC13756]
- z-score, replicate 1: 0.5
- z-score, replicate 2: 0.31

Gcn5 [DRSC11248]
- z-score, replicate 1: 0.24
- z-score, replicate 2: -0.05

CG3009 [DRSC18263]
- z-score, replicate 1: 0.31
- z-score, replicate 2: 0.47

GlcT [DRSC04525]
- z-score, replicate 1: 0.62
- z-score, replicate 2: 0.32

stck [DRSC17070]
- z-score, replicate 1: 0.11
- z-score, replicate 2: 0.41

Part of the list above, reduced to “z-score, replicate 1”:
Cnot4 [DRSC02830]	-0.34
Cnot4 [DRSC02831]	-0.34
CG7275 [DRSC10796]	0.2
